In patent publication US20030224485A1, “Expression system for ABC transporters” (priority 2002, published 2003) one finds binding data, which are given here for one molecule.

The assay addresses T1, tryptic C-half of native bovine ABCR (bovine) (UniProt F1MWM0).
T1 sequence (looked up): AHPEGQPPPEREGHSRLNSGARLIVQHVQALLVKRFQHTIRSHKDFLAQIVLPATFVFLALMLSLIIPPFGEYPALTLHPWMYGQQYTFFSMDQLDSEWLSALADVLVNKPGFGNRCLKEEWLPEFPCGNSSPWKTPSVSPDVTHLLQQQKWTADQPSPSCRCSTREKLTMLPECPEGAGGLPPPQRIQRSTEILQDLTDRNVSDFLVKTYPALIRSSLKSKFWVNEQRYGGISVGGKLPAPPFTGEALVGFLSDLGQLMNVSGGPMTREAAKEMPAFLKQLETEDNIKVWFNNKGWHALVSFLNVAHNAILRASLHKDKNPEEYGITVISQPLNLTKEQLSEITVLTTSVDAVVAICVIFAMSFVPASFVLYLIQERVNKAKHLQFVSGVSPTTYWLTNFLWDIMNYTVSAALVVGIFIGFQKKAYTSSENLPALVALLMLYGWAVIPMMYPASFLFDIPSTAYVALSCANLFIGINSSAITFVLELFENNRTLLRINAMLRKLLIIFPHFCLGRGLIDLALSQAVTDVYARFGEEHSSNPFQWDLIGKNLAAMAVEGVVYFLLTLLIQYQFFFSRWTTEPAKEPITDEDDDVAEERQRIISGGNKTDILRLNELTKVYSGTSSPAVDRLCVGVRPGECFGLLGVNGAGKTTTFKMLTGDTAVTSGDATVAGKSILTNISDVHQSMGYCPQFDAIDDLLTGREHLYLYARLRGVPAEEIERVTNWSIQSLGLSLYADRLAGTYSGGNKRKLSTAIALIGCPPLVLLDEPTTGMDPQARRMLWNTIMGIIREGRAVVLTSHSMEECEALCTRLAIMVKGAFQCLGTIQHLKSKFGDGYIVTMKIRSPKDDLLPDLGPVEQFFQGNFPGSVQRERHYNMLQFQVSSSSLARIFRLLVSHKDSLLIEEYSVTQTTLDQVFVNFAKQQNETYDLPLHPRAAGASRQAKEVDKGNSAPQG
Put plainly: co-purification of tryptic halves on Rim3F4-Sepharose, Western blot.

Results are given in words; binding and its absence hold for the method and conditions named. In cells and extracts the contact can be indirect. Some entries that bind do so weakly or less than the wild type.

B1: tryptic N-half of native bovine ABCR (protein, UniProt F1MWM0 1-1325, looked up)
chain: MGFARQIKLLLWKNWTLRKRQKIRFVVELVWPLSLFLVLIWLRNVNPLYSKHECHFPNKAMPSAGMLPWLQGIFCNVNNPCFQSPTAGESPGIVSNYNNSILARVYRDFQELLMDAPESQHLGQVWRELRTLSQLMNTLRMHPERIAGRGIRIREVLKDDEMLTLFLVKNIGLSDSVVYLLVNSQVRPEQFARGVPDLMLKDIACSEALLERFLIFPQRRAAQTVRGSLCSLSQGTLQWMEDTLYANVDFFKLFHVFPRLLDSRSQGMNLRSWGRILSDMSPRIQEFIHRPSVQDLLWVTRPLVQTGGPETFTQLMGILSDLLCGYPEGGGSRVFSFNWYEDNNYKAFLGIDSTRKDPIYSYDERTTTFCNALIQSLESNPLTKIAWRAAKPLLMGKILFTPDSPATRRILKNANSTFEELERVRKLVKVWEEVGPQIWYFFDKSTQMSMIRDTLENPTVKAFWNRQLGEEGITAEAVLNFLYNGPREGQADDVDNFNWRDIFNITDRALRLANQYLECLILDKFESYDDEFQLTQRALSLLEENRFWAGVVFPDMHPWTSSLPPHVKYKIRMDIDVVEKTNKIKDRYWDSGPRADPVEDFRYIWGGFAYLQDMVEHGITRSQAQEEVPVGIYLQQMPYPCFVDDSFMIILNRCFPIFMVLAWIYSVSMTVKSIVLEKELRLKETLKNQGVSNRVIWCTWFLDSFSIMSMSICLLTIFIMHGRILHYSNPFILFLFLLAFSIATIMQCFLLSTFFSRASLAAACSGVIYFTLYLPHILCFAWQDRITADMKMAVSLLSPVAFGFGTEYLARFEEQGVGLQWSNIGNSPMEGDEFSFLMSMKMMLLDAALYGLLAWYLDQVFPGDYGTPLPWYFLLQESYWLGGEGCSTREERALEKTEPITEEMEDPEYPEGINDCFFERELPGLVPGVCVKNLVKIFEPYGRPAVDRLNITFYESQITAFLGHNGAGKTTTLSIMTGLLPPTSGTVLVGGKDIETNLDAIRQSLGMCPQHNILFHHLTVAEHILFYAQLKGRSWDKAQLEMEAMLEDTGLHHKRNEEAQDLSGGVQRKLSVAIAFVGDAKVVVLDEPTSGVDPYSRRSIWDLLLKYRSGRTIIMSTHHMDEADILGDRIAIISQGRLYCSGTPLFLKNCFGTGFYLTLVRRMKTIQSQGRGREATCSCASKGFSVRCPACAEAITPEQVLDGDVNELTDMVHHHVPEAKLVECIGQELIFLLPNKNFKQRAYASLFRELEETLADLGLSSFGISDTPLEEIFLKVTEDLDSGHLFAGGTQQKRENINLRHPCSGPSEKAGQTPQGSSSHPREPA
Turning to B1, the binding entry is “binds”.
